Holding throughout (assay): glycan array binding signal (z-score within array); higher = stronger binding
Conditions in all cases: glycan notation: IUPAC condensed, linker removed

Test [1] deals with Neu5Ac9Ac(a2-3)Gal(b1-4)GlcNAc. The essentials: (§1)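 From the Consortium for Functional Glycomics database, 3228 arrays were curated, keeping only those whose protein sequence was available. Binding is given as a within-array Z-score averaged across arrays sharing a protein sequence and across linkers. Negative Z-scores can be read as non-binding.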
For test [2], the target named is Neu5Ac9Ac(a2-6)Gal(b1-4)GlcNAc. The essentials: as §1
In test [3] the target is Neu5Gc(a2-3)Gal(b1-3)GlcNAc. In outline:
as §1

Test [4] addresses Neu5Gc(a2-3)Gal(b1-3)[Fuc(a1-4)]GlcNAc. In outline:
as §1

The target in the next test is Neu5Gc(a2-3)Gal(b1-4)Glc. The essentials: as §1
The target in test [5] is Neu5Gc(a2-3)Gal(b1-4)GlcNAc. In outline:
as §1

In test [6] the target is Neu5Gc(a2-3)Gal(b1-4)[Fuc(a1-3)]GlcNAc. The essentials: as §1
In test [7] the target is Neu5Gc(a2-6)Gal(b1-4)GlcNAc. The essentials: as §1
The next test deals with Neu5Gc(a2-6)GalNAc. In outline: as §1
Test [8] addresses Neu5Gc(b2-6)Gal(b1-4)GlcNAc. In outline: as §1

The values below come from the supplement of paper PMC8728848.

This is one part of the list.

B1: Layilin (Mus musculus), Q8C351 (protein)
chain: MQPGAALQAMLLAVLLAKPRDSKGRLLSASDLDPRGGQLVCRGGTRRPCYKVIYFHDAFQRLNFEEAKETCMEDGGQLVSIETEDEQRLIEKFIENLLASDGDFWIGLKRLEEKQSNNTACQDLYAWTDGSTSQFRNWYVDEPSCGSEVCVVMYHQPSAPPGIGGSYMFQWNDDRCNMKNNFICKYHDDKPSTTPSIWPGGEATEPATPLLPEETQKEDTKETFKERREAALNLAYILIPSIPLFLLLVVTSAVCWVWICRRKREQTDPSTKEQHTIWPTPRQENSPNLDVYNVIRKQSEADLAEPRPDLKNISFRVCSGEAMPDDMSCDYENIAVNPSESGFVTLASMESGFVTNDIYEFSPDRMGRSKESGWVENEIYY
Take B1: the “glycan array binding signal (z-score)” value in test [1] was -0.452; in test [2], -0.584; in [3], 0.013; in test [4], -0.015; in the test with Neu5Gc(a2-3)Gal(b1-4)Glc, -1.25; in test [5] it was 0.387. In addition, the “glycan array binding signal (z-score)” value in [6] is 2.74; in [7], -0.511; in the test with Neu5Gc(a2-6)GalNAc it was 0.399; in test [8], -0.119.
